Data as given in PubChem BioAssay AID1259254 (NCATS, 2017).
Test: 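Finding genes that stop cells copying their DNA twice in one cycle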 (primary screen). Cell system: human HCT116 colorectal cancer cells. Reagent: single siRNA against human genes. Duration: 3 days. Measured: 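Nuclei stained with Hoechst and imaged; cell-cycle phase assigned by DNA content; G2 share scaled per plate, non-targeting siRNA 0%, GMNN siRNA 100%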. Reading the numbers: G2 robust z-score and G2 cells, % of GMNN control: higher = more G2 cells, more excess DNA replication; raw share of cells in G2: higher = larger share of cells with G2 DNA content. Active means: 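Active siRNAs have a G2 robust z of 5 or more median absolute deviations over the median, which in these data means about 38% or higher of GMNN control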.
The whole screen tested about 59,000 reagents; this is an unselected part. Over the whole deposit, about 1,550 (2.6%) are marked active. 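G2 share is only a proxy for re-replication; each gene was hit by three separate siRNAs, and active genes were retested.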 Raw values vary from plate to plate and are shown uncorrected. Reagents against one gene are numbered here. Reagent sequences are not shown. Not stated in the record: the amount of reagent.

gene | reagent | G2 robust z-score | G2 cells, % of GMNN control | raw share of cells in G2 (%) | call
OR2C1 | 1 | 0.431 | 6 | 7.52 | inactive
OR2C1 | 2 | -1.24 | -5.79 | 1.93 | inactive
OR2C1 | 3 | -0.0394 | 2.69 | 4.33 | inactive
KCNH7 | 1 | 0.147 | 4 | 6.74 | inactive
KCNH7 | 2 | -0.357 | 0.453 | 4.94 | inactive
KCNH7 | 3 | -0.62 | -1.4 | 3.83 | inactive
FHOD1 | 1 | 2.87 | 23.2 | 11.6 | inactive
FHOD1 | 2 | -0.791 | -2.6 | 3.33 | inactive
FHOD1 | 3 | 1.95 | 16.7 | 13.7 | inactive
SEPTIN9 | 1 | -0.745 | -2.27 | 4.71 | inactive
SEPTIN9 | 2 | -0.693 | -1.91 | 3.23 | inactive
SEPTIN9 | 3 | 0.194 | 4.33 | 8.19 | inactive
RPL21P44 | 1 | 2.44 | 20.1 | 11.1 | inactive
RPL21P44 | 2 | -0.227 | 1.37 | 4.06 | inactive
RPL21P44 | 3 | -0.558 | -0.959 | 4.39 | inactive
C19orf44 | 1 | -0.48 | -0.409 | 3.97 | inactive
C19orf44 | 2 | -1.23 | -5.72 | 1.76 | inactive
C19orf44 | 3 | -0.832 | -2.88 | 1.53 | inactive
GRM3 | 1 | -0.388 | 0.237 | 5.93 | inactive
GRM3 | 2 | 2.28 | 19 | 11.2 | inactive
GRM3 | 3 | 2.39 | 19.8 | 9.34 | inactive
CFAP90 | 1 | 0.394 | 5.74 | 6.34 | inactive
CFAP90 | 2 | -0.355 | 0.471 | 3.25 | inactive
CFAP90 | 3 | 1.68 | 14.8 | 7.95 | inactive
KRTAP2-4 | 1 | -0.421 | 0.00881 | 3 | inactive
KRTAP2-4 | 2 | 0.321 | 5.22 | 4.58 | inactive
KRTAP2-4 | 3 | 3.75 | 29.3 | 16.5 | inactive
TLDC2 | 1 | -0.952 | -3.73 | 2.77 | inactive
TLDC2 | 2 | -0.299 | 0.865 | 3.38 | inactive
TLDC2 | 3 | 0.044 | 3.28 | 3.77 | inactive
DPYS | 1 | 6.42 | 48.1 | 20.7 | active
DPYS | 2 | -0.561 | -0.979 | 4.61 | inactive
DPYS | 3 | -0.228 | 1.36 | 5.49 | inactive
TMEM42 | 1 | -0.212 | 1.48 | 4.73 | inactive
TMEM42 | 2 | 0.868 | 9.08 | 5.98 | inactive
TMEM42 | 3 | 0.316 | 5.19 | 4.46 | inactive

Entries listed so far marked active, once more:
gene | reagent | G2 robust z-score | G2 cells, % of GMNN control | raw share of cells in G2 (%) | call
DPYS | 1 | 6.42 | 48.1 | 20.7 | active

More reagents:
gene | reagent | G2 robust z-score | G2 cells, % of GMNN control | raw share of cells in G2 (%) | call
PSMA2 | 1 | 4 | 31.1 | 16.4 | inactive
PSMA2 | 2 | 4.26 | 33 | 16.6 | inactive
PSMA2 | 3 | 0.836 | 8.85 | 7.21 | inactive
PYROXD1 | 1 | -0.433 | -0.0777 | 4.41 | inactive
PYROXD1 | 2 | -0.434 | -0.0856 | 4.27 | inactive
PYROXD1 | 3 | 1.31 | 12.2 | 5.7 | inactive
KANK2 | 1 | 1.79 | 15.6 | 10.3 | inactive
KANK2 | 2 | 3.57 | 28.1 | 16.1 | inactive
KANK2 | 3 | 1.23 | 11.6 | 7.35 | inactive
TTC13 | 1 | 0.42 | 5.92 | 8.1 | inactive
TTC13 | 2 | 0.725 | 8.07 | 7.2 | inactive
TTC13 | 3 | 2.11 | 17.8 | 10.7 | inactive
CES4A | 1 | -0.44 | -0.131 | 3.59 | inactive
CES4A | 2 | 1.02 | 10.2 | 6.98 | inactive
CES4A | 3 | 0.0139 | 3.07 | 4.2 | inactive
TGIF2 | 1 | 1.99 | 16.9 | 10.3 | inactive
TGIF2 | 2 | 0.109 | 3.74 | 7.19 | inactive
TGIF2 | 3 | -0.708 | -2.01 | 3.49 | inactive
LOC728688 | 1 | -0.161 | 1.83 | 3.82 | inactive
LOC728688 | 2 | -0.995 | -4.03 | 2.38 | inactive
LOC728688 | 3 | 0.727 | 8.08 | 5.92 | inactive
PRRC1 | 1 | 1.53 | 13.8 | 9.36 | inactive
PRRC1 | 2 | -0.151 | 1.9 | 3.71 | inactive
PRRC1 | 3 | -0.187 | 1.65 | 3.18 | inactive
SH3GL1 | 1 | -0.809 | -2.72 | 3.82 | inactive
SH3GL1 | 2 | 2.58 | 21.1 | 12.6 | inactive
SH3GL1 | 3 | 0.238 | 4.64 | 5.03 | inactive
NALCN | 1 | 1.96 | 16.7 | 11.4 | inactive
NALCN | 2 | -0.00463 | 2.93 | 5.77 | inactive
NALCN | 3 | -0.0479 | 2.63 | 5.4 | inactive
VASP | 1 | -1.17 | -5.23 | 2.81 | inactive
VASP | 2 | 3.7 | 29 | 15.4 | inactive
VASP | 3 | -0.703 | -1.98 | 2.65 | inactive
